Results published in PubChem BioAssay AID445 (National Center for Advancing Translational Sciences (NCATS), 2006).
The other results are listed elsewhere or left out. Shown are side measurements of this screen, not its main read-out; they come without a call. Most of these compounds were active or inconclusive in the main read-out, so they are no random draw. Words in brackets tell the shape of the fitted curve; partial curves, single points and poor fits give uncertain potencies.

Experiment: IkB Signaling
Conditions: ABC-DLBCL IkBa-CBG/CBR dual luciferase ratio (green luciferase fused to IkBa over red control in OCI-Ly3 lymphoma cells), 4 h
How it was run: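 Luminescence ratio of IκBα-fused green versus native red beetle luciferase in OCI-Ly3 cells, 4 h post-doxycycline with compound; red signal alone, scaled from basal (0%) to zero light (-100%), flagged nonspecific or cytotoxic effects.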

[1] = measured here: IkB-luc green channel
[2] = measured here: control luc red channel
[3] = measured here: control luc red channel unless noted

## COc1cccc(C(=O)NCC(c2ccc3c(c2)OCO3)N2CCN(C)CC2)c1 (stereo not given)
[1]
  AC50: 1 µM [rising, partial curve, poor fit]
[2]
  AC50: 0.501 µM [rising, partial curve, poor fit]

## COc1cc(CNCCCSc2nnnn2C)cc(Br)c1OC
[3]
  AC50: 1 µM [falling, partial curve]

## CCC(c1nnc(SCc2nc3ccccc3s2)n1Cc1ccccc1)N(C)C (stereo not given)
[3]
  AC50: 12.6 µM [falling, partial curve]

## O=C(Nc1cccc(F)c1)C1CCN(c2nc3ccccc3nc2C(F)(F)F)CC1
[3]
  AC50: 25.1 µM [falling, partial curve]

## CCc1ccc(-c2nc(CN3CCCC(C(=O)NCc4ccccc4Cl)C3)c(C)o2)cc1 (stereo not given)
[3]
  AC50: 31.6 µM [falling, partial curve]

## COc1ccccc1CNc1ccc(N2CCCCC2)cc1
[3]
  AC50: 15.8 µM [falling, partial curve]

## Brc1cccc(-c2nnc(SCc3nc4ccccc4[nH]3)o2)c1
[3]
  AC50: 25.1 µM [falling, single point]

## Cc1nn2c(=O)cc(COC(=O)c3ccccc3NC(=O)C3CCCCC3)nc2s1
[3]
  AC50: 39.8 µM [falling, single point]

## CCOc1ccc(N(CC)S(=O)(=O)N2CCCC(C(=O)NCc3ccccc3OCC)C2)cc1 (stereo not given)
[3]
  AC50: 12.6 µM [falling, partial curve]

## COc1cc(-c2cc3n(C)c(C)c(CCC(=O)NC4CCC(C)CC4)c(=O)n3n2)cc(OC)c1OC (stereo not given)
[3]
  AC50: 39.8 µM [falling, single point]

## O=C(NC1CCCC1)c1ccc2c(c1)N(Cc1c(F)cccc1Cl)C(=O)c1ccccc1S2
[3]
  AC50: 1 µM [falling, partial curve]

## Cc1ccc(-c2cc(C(=O)Nc3cc(C)ccc3C)[nH]n2)c(O)c1
[3]
  AC50: 7.94e-05 µM [falling, full curve]

## CCc1ccc(C2=CC(c3cccc(OC)c3OC)n3c(nc4ccccc43)N2)cc1 (stereo not given)
[3]
  AC50: 0.631 µM [falling, partial curve]

## N#Cc1nc(-c2cccs2)oc1N1CCN(Cc2ccccc2)CC1
[3]
  AC50: 15.8 µM [falling, partial curve]

## CCCCCOC(=O)C1=C(C)N(C)C(=O)NC1c1cc(Br)c(O)c(OC)c1 (stereo not given)
[3]
  AC50: 25.1 µM [falling, single point]

## Cc1ccc(N2CCN(S(=O)(=O)c3nnc(NC(=O)c4cccc(F)c4)s3)CC2)cc1
[3]
  AC50: 39.8 µM [falling, single point]

## CCCN1CCN(CCCNC(=O)c2cc3c(=O)[nH]c4ccccc4c3s2)CC1
[3]
  AC50: 10 µM [falling, partial curve]

## O=C(CCSCCc1ccccn1)Nc1ccccc1C(F)(F)F
[3]
  AC50: 39.8 µM [rising, partial curve, poor fit]

## Cc1ccc(-n2ncc3c(NCCc4ccccc4)ncnc32)cc1Cl
[3]
  AC50: 15.8 µM [falling, partial curve]

## CN(Cc1ccccc1)S(=O)(=O)c1ccc2[nH]cc(C(=O)NCC3CCCO3)c(=O)c2c1 (stereo not given)
[3]
  AC50: 25.1 µM [falling, partial curve]

## COCCCNc1oc(-c2ccc(COc3ccccc3C)o2)nc1C#N
[3]
  AC50: 31.6 µM [falling, single point]

## COc1ccc(OC)c(NC(=O)c2cc3n(n2)C(C(F)(F)F)CC(c2ccc4c(c2)OCO4)N3)c1 (stereo not given)
[3]
  AC50: 10 µM [falling, partial curve]

## COc1cccc(OCCn2c(-c3ccc(Cl)cc3)nc3ccccc3c2=O)c1
[3]
  AC50: 20 µM [falling, partial curve]

## CCC(CC)C(=O)Nc1cccc(-c2cn3cccnc3n2)c1
[3]
  AC50: 2.51 µM [rising, partial curve]

## CCC1=Nc2cc(C(=O)NC3CCCC3)ccc2Sc2ccc(Cl)cc21
[1]
  AC50: 3.16 µM [rising, full curve, poor fit]
[2]
  AC50: 39.8 µM [falling, single point]

## COc1ccccc1N1CCN(C(=O)CCCn2c(=O)[nH]c3ccsc3c2=O)CC1
[3]
  AC50: 25.1 µM [falling, partial curve, poor fit]

## Cc1ccc2nc3sc(C(=O)Nc4ccc(F)cc4)cc3cc2c1
[3]
  AC50: 5.01 µM [falling, full curve, poor fit]

## O=C(COc1ccccc1)N1CCc2ccccc2C1
[3]
  AC50: 12.6 µM [falling, partial curve]

## CN(C(=O)CSc1nc2ccc(NC(=O)c3ccco3)cc2s1)c1ccccc1
[3]
  AC50: 31.6 µM [falling, single point]

## CCn1c(=O)cc(OCC(=O)NCCCN2CCN(c3cccc(Cl)c3)CC2)c2ccccc21
[3]
  AC50: 12.6 µM [falling, partial curve]

## Cc1ccc(CNS(=O)(=O)c2ccc(F)c(C(=O)Nc3ccc(C)c(F)c3)c2)cc1
[3]
  AC50: 0.01 µM [falling, full curve, poor fit]

## Cc1cc(NC(=O)c2cc(-c3ccncc3)nc3c(C)cccc23)no1
[3]
  AC50: 12.6 µM [falling, partial curve]

## O=C(Nc1ccc(F)cc1)c1ccc(-n2cnc3cccnc32)cc1
[3]
  AC50: 15.8 µM [falling, partial curve]

## O=C(NCCc1ccc(Cl)cc1)c1ccc(CS(=O)(=O)Cc2ccc(F)cc2)o1
[3]
  AC50: 0.126 µM [rising, full curve, poor fit]

## CCCC(=O)N(c1ccc2oc3c(c2c1)CCCC3)S(=O)(=O)c1ccc(CC)cc1
[3]
  AC50: 12.6 µM [falling, partial curve]

## O=C(O)c1c[nH]c2cc(OCc3ccccc3)ccc2c1=O
[3]
  AC50: 0.316 µM [falling, full curve]

## COc1ccc(OC)c(-n2c(=O)[nH]c3cc(C(=O)NCCc4ccc(OC)c(OC)c4)ccc3c2=O)c1
[3]
  AC50: 25.1 µM [falling, partial curve]

## COc1ccc(NCc2nc3ccccc3n2CCOc2ccccc2C)cc1
[3]
  AC50: 3.98 µM [falling, full curve]

## C1=C(CCNc2nnnn2-c2ccccc2)CCCC1
[3]
  AC50: 12.6 µM [falling, partial curve]

## CC(=O)Nc1cccc(Oc2cc(C#N)c(C#N)cc2N2CCCCCC2)c1
[3]
  AC50: 15.8 µM [falling, partial curve]

## Cc1cc(C)c2c(n1)nn1c(C)c(CCC(=O)Nc3ccc(C)c(Cl)c3)c(C)nc21
[3]
  AC50: 3.16 µM [falling, single point]

## Cc1cn2c(=O)cc(COC(=O)c3cccc(NC(=O)C(C)Oc4ccccc4)c3)nc2s1 (stereo not given)
[3]
  AC50: 20 µM [falling, partial curve]

## CC1=C(C(=O)Nc2ccc(Cl)cc2)C(c2cccs2)n2nc(SCc3cccc(Cl)c3)nc2N1 (stereo not given)
[3]
  AC50: 1 µM [falling, partial curve]

## CCn1c(Oc2ccc(F)cc2F)nc2c1c(=O)n(C)c(=O)n2C
[3]
  AC50: 12.6 µM [falling, partial curve]

## CCc1cc2c(cc3c(=O)n(CC(=O)NCc4cccc(Cl)c4)nc(CC)n32)s1
[3]
  AC50: 7.94 µM [rising, partial curve]

## Cc1cc(Nc2ccc(F)cc2)n2nc(C)nc2n1
[3]
  AC50: 10 µM [falling, partial curve]

## COc1ccc(Nc2cc(C(=O)NCCCN(C)Cc3ccccc3)c3ccccc3n2)cc1OC
[3]
  AC50: 20 µM [falling, partial curve]

## Cc1nc2nc(COc3ccccc3)[nH]n2c(=O)c1Cl
[3]
  AC50: 0.251 µM [falling, full curve]

## COc1cccc(COC(=O)c2nn(-c3ccccc3)nc2N)c1
[3]
  AC50: 31.6 µM [falling, partial curve]

## COc1ccc(NC(=O)NCc2cccn2C)c(OC)c1
[3]
  AC50: 12.6 µM [falling, partial curve]

## CCc1ccc(NC(=O)N2CC=C(c3c[nH]c4ccccc34)CC2)cc1
[3]
  AC50: 2.51 µM [falling, partial curve]

## CCN(CC)c1ccc(NC(=O)CCS(=O)(=O)c2cccc3nsnc23)c(C)c1
[3]
  AC50: 25.1 µM [falling, single point]

## COc1ccc(C(=O)NCC(c2cccnc2)N2CCc3ccccc3C2)cc1 (stereo not given)
[3]
  AC50: 39.8 µM [falling, single point]

## CCN(CC)c1ccc(C2CC(=O)Nc3cc(OC)c(OC)cc32)cc1 (stereo not given)
[3]
  AC50: 20 µM [falling, partial curve]

## Cc1cccc(NC(c2cccc(Cl)c2)c2ccc3cccnc3c2O)n1 (stereo not given)
[3]
  AC50: 7.94 µM [falling, partial curve]

## COc1cc(NC(=O)Nc2nnc(N3CCCCC3)s2)cc(OC)c1
[3]
  AC50: 6.31 µM [falling, partial curve]

## O=c1c2[nH]c3ccccc3c2nc(SCc2ccccc2F)n1-c1ccc(F)cc1
[3]
  AC50: 39.8 µM [falling, single point]

## Cc1ccc(CNC(=O)c2ccc3oc(=O)n(Cc4ccccc4)c3c2)cc1
[3]
  AC50: 31.6 µM [falling, single point]

## COc1ccc(Cl)cc1NC(=O)C1CCCN(S(=O)(=O)c2ccc3c(c2)CCCC(=O)N3)C1 (stereo not given)
[3]
  AC50: 15.8 µM [falling, partial curve]

## O=C(CSc1nc2c(c(=O)[nH]1)CN(Cc1ccc3c(c1)OCO3)CC2)Nc1cc(F)ccc1F
[3]
  AC50: 7.94 µM [falling, full curve]

## c1ccc2[nH]c(CN3CCN(c4ncnc5c4oc4ccccc45)CC3)nc2c1
[3]
  AC50: 31.6 µM [falling, single point]

## COc1ccc(-c2c3c(=O)n(C)c(=O)n(C)c3c3n2-c2ccccc2NC3c2ccccc2OC)cc1 (stereo not given)
[3]
  AC50: 3.98 µM [falling, full curve]

## COc1ccc2sc(NC(=O)CC(C)C)nc2c1
[3]
  AC50: 10 µM [falling, partial curve]
